Experimental data: PubChem BioAssay AID743121 (NCATS, 2013)

Test: 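Partners whose loss is lethal together with topoisomerase I blockade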 (primary screen)
System: MDA-MB-231 cells, a human breast cancer line
Knock-down reagent: single siRNA against human genes, 20 nM siRNA (0.8 pmol per well)
Duration: 120 h (drug added 48 h after transfection, read 72 h later)
Treatment: camptothecin 20 nM (about EC30) for 72 h; vehicle 0.1% DMSO in parallel plates
Measured: 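Cell viability by ATP luminescence (CellTiter-Glo) as % of non-targeting siRNA wells, and the log2 ratio of viability without drug over viability with camptothecin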
Reading the numbers: log2 vehicle/camptothecin viability: higher = stronger sensitisation to camptothecin; viability with camptothecin and viability without drug: higher = more viable cells
Active means: 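Active genes have an RSA gene-level p-value below 0.001, computed from the ratios of their separate siRNAs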
The deposit covers about 26,000 reagents; this is a random part of them. In the full data, 167 (0.63%) were called active. 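Calls are per gene from RSA p-values that are not deposited; an individual active-marked siRNA can sensitise only weakly.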 The numbers tell different reagents against one gene apart. Reagent sequences are not shown.

| gene knocked down | reagent | log2 vehicle/camptothecin viability | viability with camptothecin (% of control) | viability without drug (% of control) | Outcome |
| --- | --- | --- | --- | --- | --- |
| KCNE5 | 1 | 0.0726 | 62.4 | 65.6 | inactive |
| KCNE5 | 2 | -0.348 | 109 | 85.5 | inactive |
| KCNE5 | 3 | -0.0936 | 101 | 94.5 | inactive |
| KCNE5 | 4 | 0.186 | 89.5 | 102 | inactive |
| ITGA11 | 1 | -0.066 | 111 | 106 | inactive |
| ITGA11 | 2 | -0.184 | 92.3 | 81.3 | inactive |
| ITGA11 | 3 | -0.547 | 76.7 | 52.5 | inactive |
| VNN2 | 1 | 0.0643 | 98.5 | 103 | inactive |
| VNN2 | 2 | 0.102 | 74.9 | 80.3 | inactive |
| VNN2 | 3 | -0.264 | 105 | 87.1 | inactive |
| VNN2 | 4 | -0.0164 | 71.3 | 70.5 | inactive |

Ordered by “viability without drug (% of control)” (high to low): 5 of the entries above.
| gene knocked down | reagent | log2 vehicle/camptothecin viability | viability with camptothecin (% of control) | viability without drug (% of control) | Outcome |
| --- | --- | --- | --- | --- | --- |
| ITGA11 | 1 | -0.066 | 111 | 106 | inactive |
| KCNE5 | 4 | 0.186 | 89.5 | 102 | inactive |
| KCNE5 | 3 | -0.0936 | 101 | 94.5 | inactive |
| KCNE5 | 2 | -0.348 | 109 | 85.5 | inactive |
| KCNE5 | 1 | 0.0726 | 62.4 | 65.6 | inactive |

Further results:
| gene knocked down | reagent | log2 vehicle/camptothecin viability | viability with camptothecin (% of control) | viability without drug (% of control) | Outcome |
| --- | --- | --- | --- | --- | --- |
| MNAT1 | 1 | -0.376 | 77.7 | 59.9 | inactive |
| MNAT1 | 2 | 0.0143 | 83.3 | 84.2 | inactive |
| MNAT1 | 3 | -0.31 | 96.4 | 77.8 | inactive |
| MNAT1 | 4 | 0.0272 | 109 | 111 | inactive |
| GPR37L1 | 1 | 0.0168 | 97.1 | 98.3 | inactive |
| GPR37L1 | 2 | 0.185 | 24 | 27.3 | inactive |
| GPR37L1 | 3 | -0.363 | 55.2 | 42.9 | inactive |
| GPR37L1 | 4 | -0.318 | 79.6 | 63.9 | inactive |
| EPX | 1 | -0.0206 | 91.5 | 90.2 | inactive |
| EPX | 2 | -0.18 | 94.7 | 83.6 | inactive |
| EPX | 3 | 0.243 | 72.3 | 85.6 | inactive |
| EPX | 4 | 1.28 | 34.8 | 84.4 | inactive |
| CACNA1C | 1 | -0.28 | 55.9 | 46.1 | inactive |
| CACNA1C | 2 | 0.136 | 89.9 | 98.8 | inactive |
| CACNA1C | 3 | -0.0413 | 107 | 104 | inactive |
| CACNA1C | 4 | 0.294 | 7.83 | 9.6 | inactive |
| STX6 | 1 | -0.2 | 45.1 | 39.2 | inactive |
| STX6 | 2 | -0.303 | 110 | 89.2 | inactive |
| STX6 | 3 | -0.283 | 94.8 | 77.9 | inactive |
